Differences between knockout arms are mostly noise.
Test system: BT-20
Assay: relative cell number vs DMSO control (72 h) (% of DMSO); higher = less growth inhibition (more cells)
Protocol: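 QMAP-Seq: a pool of 5 breast cancer cell lines (ZR-75-1, SKBR3, HCC-38, MDA-MB-231, BT-20), each carrying 12 doxycycline-inducible Cas9 sgRNA perturbations (11 knockouts plus non-targeting sgNT), was treated with compounds for 72 h at four 10-fold doses (10 nM-10 uM or 1 nM-1 uM range). Barcodes were amplified and sequenced, and cell number was interpolated from 293T spike-in standard curves. The result is expressed as % of the median of DMSO wells. Two biological replicates.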

Cc1ncc([N+](=O)[O-])n1CC(O)CCl (configuration not stated) [Ornidazole]
Details | relative cell number
sgRNA knockout: sgATF3, 10 nM | 92.9
sgRNA knockout: sgATF3, 100 nM | 101.4
sgRNA knockout: sgATF3, 1000 nM | 94.4
sgRNA knockout: sgATF3, 10000 nM | 99.7
sgRNA knockout: sgATF4, 10 nM | 87.2
sgRNA knockout: sgATF4, 100 nM | 96.06
sgRNA knockout: sgATF4, 1000 nM | 118
sgRNA knockout: sgATF4, 10000 nM | 104
sgRNA knockout: sgATF6, 10 nM | 85.7
sgRNA knockout: sgATF6, 100 nM | 86.9
sgRNA knockout: sgATF6, 1000 nM | 104
sgRNA knockout: sgATF6, 10000 nM | 111
sgRNA knockout: sgATG7, 10 nM | 103
sgRNA knockout: sgATG7, 100 nM | 103
sgRNA knockout: sgATG7, 1000 nM | 110
sgRNA knockout: sgATG7, 10000 nM | 86.5
sgRNA knockout: sgERN1, 10 nM | 101
sgRNA knockout: sgERN1, 100 nM | 100
sgRNA knockout: sgERN1, 1000 nM | 102
sgRNA knockout: sgERN1, 10000 nM | 79
sgRNA knockout: sgHSF1, 10 nM | 84.504
sgRNA knockout: sgHSF1, 100 nM | 113
sgRNA knockout: sgHSF1, 1000 nM | 113
sgRNA knockout: sgHSF1, 10000 nM | 95.5
sgRNA knockout: sgHSF2, 10 nM | 94.7
sgRNA knockout: sgHSF2, 100 nM | 99.4
sgRNA knockout: sgHSF2, 1000 nM | 103
sgRNA knockout: sgHSF2, 10000 nM | 101
sgRNA knockout: sgKEAP1, 10 nM | 94.39
sgRNA knockout: sgKEAP1, 100 nM | 87.8
sgRNA knockout: sgKEAP1, 1000 nM | 115
sgRNA knockout: sgKEAP1, 10000 nM | 98.4
sgRNA knockout: sgNFE2L2, 10 nM | 95.8
sgRNA knockout: sgNFE2L2, 100 nM | 112
sgRNA knockout: sgNFE2L2, 1000 nM | 109
sgRNA knockout: sgNFE2L2, 10000 nM | 100
sgRNA knockout: sgSLC35F2, 10 nM | 89
sgRNA knockout: sgSLC35F2, 100 nM | 100
sgRNA knockout: sgSLC35F2, 1000 nM | 104
sgRNA knockout: sgSLC35F2, 10000 nM | 115
sgRNA knockout: sgXBP1, 10 nM | 87
sgRNA knockout: sgXBP1, 100 nM | 101
sgRNA knockout: sgXBP1, 1000 nM | 115
sgRNA knockout: sgXBP1, 10000 nM | 106

O=P1(NCCCl)OCCCN1CCCl (configuration not stated) [Ifosfamide]
Details | relative cell number
sgRNA knockout: sgATF3, 10 nM | 91.4
sgRNA knockout: sgATF3, 100 nM | 87.8
sgRNA knockout: sgATF3, 1000 nM | 102
sgRNA knockout: sgATF3, 10000 nM | 96.1
sgRNA knockout: sgATF4, 10 nM | 89.9
sgRNA knockout: sgATF4, 100 nM | 93.8
sgRNA knockout: sgATF4, 1000 nM | 109
sgRNA knockout: sgATF4, 10000 nM | 104
sgRNA knockout: sgATF6, 10 nM | 73.49
sgRNA knockout: sgATF6, 100 nM | 106
sgRNA knockout: sgATF6, 1000 nM | 96.3
sgRNA knockout: sgATF6, 10000 nM | 94.2
sgRNA knockout: sgATG7, 10 nM | 91
sgRNA knockout: sgATG7, 100 nM | 101
sgRNA knockout: sgATG7, 1000 nM | 106
sgRNA knockout: sgATG7, 10000 nM | 95.8
sgRNA knockout: sgERN1, 10 nM | 100
sgRNA knockout: sgERN1, 100 nM | 87.8
sgRNA knockout: sgERN1, 1000 nM | 97.4
sgRNA knockout: sgERN1, 10000 nM | 92.1
sgRNA knockout: sgHSF1, 10 nM | 93.7
sgRNA knockout: sgHSF1, 100 nM | 99.1
sgRNA knockout: sgHSF1, 1000 nM | 117
sgRNA knockout: sgHSF1, 10000 nM | 93.1
sgRNA knockout: sgHSF2, 10 nM | 106
sgRNA knockout: sgHSF2, 100 nM | 98
sgRNA knockout: sgHSF2, 1000 nM | 93.9
sgRNA knockout: sgHSF2, 10000 nM | 92.8
sgRNA knockout: sgKEAP1, 10 nM | 100
sgRNA knockout: sgKEAP1, 100 nM | 95.5
sgRNA knockout: sgKEAP1, 1000 nM | 99.1
sgRNA knockout: sgKEAP1, 10000 nM | 88.7
sgRNA knockout: sgNFE2L2, 10 nM | 79.2
sgRNA knockout: sgNFE2L2, 100 nM | 102
sgRNA knockout: sgNFE2L2, 1000 nM | 110
sgRNA knockout: sgNFE2L2, 10000 nM | 84.6
sgRNA knockout: sgSLC35F2, 10 nM | 89.5
sgRNA knockout: sgSLC35F2, 100 nM | 96.9
sgRNA knockout: sgSLC35F2, 1000 nM | 127
sgRNA knockout: sgSLC35F2, 10000 nM | 93.8
sgRNA knockout: sgXBP1, 10 nM | 95.46
sgRNA knockout: sgXBP1, 100 nM | 102
sgRNA knockout: sgXBP1, 1000 nM | 106
sgRNA knockout: sgXBP1, 10000 nM | 99.7

CCC(C)(C)C(=O)O[C@H]1C[C@@H](C)C=C2C=C[C@H](C)[C@H](CC[C@@H]3C[C@@H](O)CC(=O)O3)[C@H]21 [Simvastatin]
Details | relative cell number
sgRNA knockout: sgATF3, 10 nM | 96.7
sgRNA knockout: sgATF3, 100 nM | 98.4
sgRNA knockout: sgATF3, 1000 nM | 96.5
sgRNA knockout: sgATF3, 10000 nM | 90.3
sgRNA knockout: sgATF4, 10 nM | 107
sgRNA knockout: sgATF4, 100 nM | 89
sgRNA knockout: sgATF4, 1000 nM | 94.1
sgRNA knockout: sgATF4, 10000 nM | 103
sgRNA knockout: sgATF6, 10 nM | 98.8
sgRNA knockout: sgATF6, 100 nM | 100
sgRNA knockout: sgATF6, 1000 nM | 104
sgRNA knockout: sgATF6, 10000 nM | 96.1
sgRNA knockout: sgATG7, 10 nM | 93.2
sgRNA knockout: sgATG7, 100 nM | 82.9
sgRNA knockout: sgATG7, 1000 nM | 109
sgRNA knockout: sgATG7, 10000 nM | 98.4
sgRNA knockout: sgERN1, 10 nM | 89.556
sgRNA knockout: sgERN1, 100 nM | 80.3
sgRNA knockout: sgERN1, 1000 nM | 112
sgRNA knockout: sgERN1, 10000 nM | 84.3
sgRNA knockout: sgHSF1, 10 nM | 96
sgRNA knockout: sgHSF1, 100 nM | 85.83
sgRNA knockout: sgHSF1, 1000 nM | 95.8
sgRNA knockout: sgHSF1, 10000 nM | 102
sgRNA knockout: sgHSF2, 10 nM | 85.7
sgRNA knockout: sgHSF2, 100 nM | 87.7
sgRNA knockout: sgHSF2, 1000 nM | 98.5
sgRNA knockout: sgHSF2, 10000 nM | 102
sgRNA knockout: sgKEAP1, 10 nM | 95.3
sgRNA knockout: sgKEAP1, 100 nM | 94.9
sgRNA knockout: sgKEAP1, 1000 nM | 92
sgRNA knockout: sgKEAP1, 10000 nM | 104
sgRNA knockout: sgNFE2L2, 10 nM | 85.7
sgRNA knockout: sgNFE2L2, 100 nM | 90.29
sgRNA knockout: sgNFE2L2, 1000 nM | 96.5
sgRNA knockout: sgNFE2L2, 10000 nM | 101
sgRNA knockout: sgSLC35F2, 10 nM | 96
sgRNA knockout: sgSLC35F2, 100 nM | 83.4
sgRNA knockout: sgSLC35F2, 1000 nM | 94.7
sgRNA knockout: sgSLC35F2, 10000 nM | 89
sgRNA knockout: sgXBP1, 10 nM | 103
sgRNA knockout: sgXBP1, 100 nM | 86.9
sgRNA knockout: sgXBP1, 1000 nM | 89.6
sgRNA knockout: sgXBP1, 10000 nM | 89.1

Source: the supplement of paper PMC7661543
